Assay results taken from publication PMC9870996.
No constants are given. Whether binding was seen depends on the method and setting. In cells and extracts the contact can be indirect. Some results given as binding are weak or reduced against the parent protein; the word gives no strength.

The chains behind the UniProt entries cited, without tags or fusion partners.
UniProt Q8NET8: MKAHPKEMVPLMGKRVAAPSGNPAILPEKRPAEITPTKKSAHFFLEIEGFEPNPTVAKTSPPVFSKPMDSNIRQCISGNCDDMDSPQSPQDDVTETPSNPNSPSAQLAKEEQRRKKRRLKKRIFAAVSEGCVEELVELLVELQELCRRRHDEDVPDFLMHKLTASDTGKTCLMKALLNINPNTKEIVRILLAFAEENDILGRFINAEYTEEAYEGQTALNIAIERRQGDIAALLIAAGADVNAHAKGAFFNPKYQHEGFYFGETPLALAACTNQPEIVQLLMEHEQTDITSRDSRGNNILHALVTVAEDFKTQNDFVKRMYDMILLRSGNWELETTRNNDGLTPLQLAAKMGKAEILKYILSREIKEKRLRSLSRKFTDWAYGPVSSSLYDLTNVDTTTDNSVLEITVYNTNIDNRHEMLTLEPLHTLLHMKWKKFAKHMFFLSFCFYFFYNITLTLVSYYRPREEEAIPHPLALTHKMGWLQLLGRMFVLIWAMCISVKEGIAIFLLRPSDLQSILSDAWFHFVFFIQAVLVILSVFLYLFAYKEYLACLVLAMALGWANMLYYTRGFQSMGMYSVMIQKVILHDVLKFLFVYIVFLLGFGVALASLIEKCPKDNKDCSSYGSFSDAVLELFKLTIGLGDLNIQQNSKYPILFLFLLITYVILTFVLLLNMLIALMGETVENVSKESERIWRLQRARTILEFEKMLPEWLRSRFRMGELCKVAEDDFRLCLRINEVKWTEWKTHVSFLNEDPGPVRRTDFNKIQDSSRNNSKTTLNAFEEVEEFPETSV

Biological target: T1, human anoctamin1 (ANO1) (human) (UniProt Q5XXA6)
T1 sequence: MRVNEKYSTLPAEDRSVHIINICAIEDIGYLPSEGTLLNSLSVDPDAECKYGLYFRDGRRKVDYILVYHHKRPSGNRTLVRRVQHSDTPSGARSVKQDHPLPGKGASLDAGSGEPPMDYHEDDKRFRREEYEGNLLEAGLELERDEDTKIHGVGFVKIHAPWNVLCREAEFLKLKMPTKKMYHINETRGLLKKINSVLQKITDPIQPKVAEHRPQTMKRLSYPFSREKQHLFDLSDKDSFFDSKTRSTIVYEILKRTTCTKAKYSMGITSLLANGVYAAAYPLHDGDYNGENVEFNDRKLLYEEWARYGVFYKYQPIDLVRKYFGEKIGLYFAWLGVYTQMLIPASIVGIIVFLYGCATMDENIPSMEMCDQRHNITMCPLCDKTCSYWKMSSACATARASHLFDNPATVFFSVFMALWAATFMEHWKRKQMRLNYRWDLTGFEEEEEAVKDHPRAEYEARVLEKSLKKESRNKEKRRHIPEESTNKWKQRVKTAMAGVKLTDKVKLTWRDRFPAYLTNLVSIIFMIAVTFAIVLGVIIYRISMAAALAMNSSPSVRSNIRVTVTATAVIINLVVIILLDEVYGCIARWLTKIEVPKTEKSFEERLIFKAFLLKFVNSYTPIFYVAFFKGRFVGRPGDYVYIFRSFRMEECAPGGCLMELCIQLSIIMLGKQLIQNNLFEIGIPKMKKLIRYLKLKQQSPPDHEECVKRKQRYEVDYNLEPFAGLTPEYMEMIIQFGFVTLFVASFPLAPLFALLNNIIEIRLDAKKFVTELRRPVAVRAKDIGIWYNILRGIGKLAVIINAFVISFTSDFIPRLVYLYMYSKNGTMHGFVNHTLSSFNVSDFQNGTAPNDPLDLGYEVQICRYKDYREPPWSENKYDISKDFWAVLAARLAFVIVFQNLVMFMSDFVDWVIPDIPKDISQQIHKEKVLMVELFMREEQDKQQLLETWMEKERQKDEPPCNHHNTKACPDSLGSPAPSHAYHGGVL
Assay: co-IP; lysate of transfected HEK293T cells (1% Triton X-100, 150 mM NaCl, 10 mM Tris-HCl, 1 mM EDTA, pH 7.5); precipitated overnight with anti-ANO1 or anti-TRPV3 antibody and protein G Mag Sepharose; blotted with anti-TRPV3

For “human TRPV3 (transient receptor potential vanilloid 3) (from UniProt Q8NET8 1-790)”, the binding was “binds”.
